Results deposited as PubChem BioAssay AID1508588 (Peter MacCallum Cancer Centre, 2020)
Test: 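Which gene losses make BRAF-mutant melanoma cells more responsive to vemurafenib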 (primary screen). System: human WM266.4 melanoma cells (BRAF V600 mutant). Reagents: siRNA pool against human genes, 40 nM. Duration: 96 h from transfection to read-out. Treatment: vemurafenib 300 nM (about IC25), added 48 h after transfection, for 48 h; comparison arm got DMSO vehicle only. Detection: 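Ratios to non-targeting siRNA for cell gain, counted as DAPI nuclei after minus before drug and averaged over two replicates, and for absorbance-read medium lactate per cell; both binned into fold-change classes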. Scale: cell gain with vemurafenib: higher = more cell gain than with non-targeting siRNA; lactate per cell with vemurafenib: higher = more lactate made per cell. Hit rule: 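Enhancement is called by pairing each knock-down's vehicle-arm and drug-arm fold-change classes for viability or glycolysis; which class combinations qualify is not given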. Calls: active = enhances vemurafenib effect; inactive = no enhancement seen.
This is an unselected part of about 18,000 reagents tested. Over the whole deposit, 790 (4.4%) were called active. 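Calls rest on a combination of fold-change classes in drug and vehicle arms, not all shown here.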

{"Gene": "ITGB1 (GeneID 3688)", "PubChem SID": "SID134310496", "cell gain with vemurafenib": 0.91, "lactate per cell with vemurafenib": 0.5, "call": "inactive"}
{"Gene": "RIOK2 (GeneID 55781)", "PubChem SID": "SID134310711", "cell gain with vemurafenib": 0.34, "lactate per cell with vemurafenib": 1.5, "call": "inactive"}
{"Gene": "RGP1 (GeneID 9827)", "PubChem SID": "SID152151631", "cell gain with vemurafenib": 0.34, "lactate per cell with vemurafenib": 1.96, "call": "inactive"}
{"Gene": "SIDT1 (GeneID 54847)", "PubChem SID": "SID152153622", "cell gain with vemurafenib": 0.59, "lactate per cell with vemurafenib": 0.98, "call": "inactive"}
{"Gene": "AP2M1 (GeneID 1173)", "PubChem SID": "SID152156424", "cell gain with vemurafenib": -0.05, "lactate per cell with vemurafenib": 2.8, "call": "inactive"}
{"Gene": "CGB3 (GeneID 1082)", "PubChem SID": "SID134315522", "cell gain with vemurafenib": 0.55, "lactate per cell with vemurafenib": 1.04, "call": "inactive"}
{"Gene": "ITFG1 (GeneID 81533)", "PubChem SID": "SID152147893", "cell gain with vemurafenib": 0.5, "lactate per cell with vemurafenib": 1.05, "call": "inactive"}
{"Gene": "SLC43A2 (GeneID 124935)", "PubChem SID": "SID134320433", "cell gain with vemurafenib": 0.58, "lactate per cell with vemurafenib": 0.51, "call": "inactive"}
{"Gene": "STARD3 (GeneID 10948)", "PubChem SID": "SID134321584", "cell gain with vemurafenib": 0.68, "lactate per cell with vemurafenib": 0.91, "call": "inactive"}
{"Gene": "PCDHA2 (GeneID 56146)", "PubChem SID": "SID135622489", "cell gain with vemurafenib": 0.48, "lactate per cell with vemurafenib": 0.32, "call": "inactive"}
{"Gene": "OR4S1 (GeneID 256148)", "PubChem SID": "SID152148820", "cell gain with vemurafenib": 0.8, "lactate per cell with vemurafenib": 0.57, "call": "inactive"}
{"Gene": "EGLN2 (GeneID 112398)", "PubChem SID": "SID134310357", "cell gain with vemurafenib": 0.25, "lactate per cell with vemurafenib": 0.99, "call": "inactive"}
{"Gene": "CD1B (GeneID 910)", "PubChem SID": "SID152149184", "cell gain with vemurafenib": 0.56, "lactate per cell with vemurafenib": 1.33, "call": "inactive"}
{"Gene": "RPP30 (GeneID 10556)", "PubChem SID": "SID152156122", "cell gain with vemurafenib": 0.38, "lactate per cell with vemurafenib": 1.4, "call": "inactive"}
{"Gene": "FOXD4 (GeneID 2298)", "PubChem SID": "SID135624534", "cell gain with vemurafenib": 0.7, "lactate per cell with vemurafenib": 0.7, "call": "inactive"}
{"Gene": "SEMA4A (GeneID 64218)", "PubChem SID": "SID134319715", "cell gain with vemurafenib": 0.86, "lactate per cell with vemurafenib": 0.57, "call": "inactive"}
{"Gene": "H2AC19 (GeneID 723790)", "PubChem SID": "SID135625665", "cell gain with vemurafenib": 0.73, "lactate per cell with vemurafenib": 1.01, "call": "inactive"}
{"Gene": "RPS12 (GeneID 6206)", "PubChem SID": "SID152150751", "cell gain with vemurafenib": 0.03, "lactate per cell with vemurafenib": 1.32, "call": "inactive"}
{"Gene": "BPIFB3 (GeneID 359710)", "PubChem SID": "SID134313954", "cell gain with vemurafenib": 0.85, "lactate per cell with vemurafenib": 0.51, "call": "inactive"}
{"Gene": "PEX16 (GeneID 9409)", "PubChem SID": "SID134316256", "cell gain with vemurafenib": 0.46, "lactate per cell with vemurafenib": 1.56, "call": "inactive"}
{"Gene": "TSPY1 (GeneID 7258)", "PubChem SID": "SID152151493", "cell gain with vemurafenib": 0.6, "lactate per cell with vemurafenib": 0.84, "call": "inactive"}
{"Gene": "GALNT15 (GeneID 117248)", "PubChem SID": "SID152154247", "cell gain with vemurafenib": 0.57, "lactate per cell with vemurafenib": 0.55, "call": "inactive"}
{"Gene": "GRK2 (GeneID 156)", "PubChem SID": "SID152155453", "cell gain with vemurafenib": 0.29, "lactate per cell with vemurafenib": 0.72, "call": "inactive"}
{"Gene": "CUL1 (GeneID 8454)", "PubChem SID": "SID134310265", "cell gain with vemurafenib": 0.73, "lactate per cell with vemurafenib": 1.04, "call": "inactive"}
{"Gene": "PCDH7 (GeneID 5099)", "PubChem SID": "SID134313689", "cell gain with vemurafenib": 0.24, "lactate per cell with vemurafenib": 1.53, "call": "inactive"}
{"Gene": "HOXB2 (GeneID 3212)", "PubChem SID": "SID152147382", "cell gain with vemurafenib": 0.96, "lactate per cell with vemurafenib": 0.55, "call": "inactive"}
{"Gene": "DCTN1 (GeneID 1639)", "PubChem SID": "SID134317124", "cell gain with vemurafenib": 0.3, "lactate per cell with vemurafenib": 0.81, "call": "inactive"}
{"Gene": "LUC7L3 (GeneID 51747)", "PubChem SID": "SID152153978", "cell gain with vemurafenib": 0.28, "lactate per cell with vemurafenib": 1.1, "call": "inactive"}
{"Gene": "GAGE2E (GeneID 26749)", "PubChem SID": "SID134316709", "cell gain with vemurafenib": 0, "lactate per cell with vemurafenib": 0, "call": "inactive"}
{"Gene": "UNC5D (GeneID 137970)", "PubChem SID": "SID134319333", "cell gain with vemurafenib": 1.06, "lactate per cell with vemurafenib": 0.4, "call": "inactive"}
{"Gene": "RSRP1 (GeneID 57035)", "PubChem SID": "SID134319897", "cell gain with vemurafenib": 0.39, "lactate per cell with vemurafenib": 2.23, "call": "inactive"}
{"Gene": "TIGAR (GeneID 57103)", "PubChem SID": "SID152152059", "cell gain with vemurafenib": 0.78, "lactate per cell with vemurafenib": 0.66, "call": "inactive"}
{"Gene": "RAD52 (GeneID 5893)", "PubChem SID": "SID152148995", "cell gain with vemurafenib": 0.18, "lactate per cell with vemurafenib": 1.19, "call": "inactive"}
{"Gene": "NHSL2 (GeneID 340527)", "PubChem SID": "SID134329571", "cell gain with vemurafenib": -0.06, "lactate per cell with vemurafenib": 4.11, "call": "inactive"}
{"Gene": "NHSL2 (GeneID 340527)", "PubChem SID": "SID152149292", "cell gain with vemurafenib": 0.92, "lactate per cell with vemurafenib": 0.64, "call": "inactive"}
{"Gene": "NMUR1 (GeneID 10316)", "PubChem SID": "SID152152476", "cell gain with vemurafenib": 0.77, "lactate per cell with vemurafenib": 0.66, "call": "inactive"}
{"Gene": "SPATS2L (GeneID 26010)", "PubChem SID": "SID135623949", "cell gain with vemurafenib": 0.77, "lactate per cell with vemurafenib": 1.54, "call": "inactive"}
{"Gene": "EPRS1 (GeneID 2058)", "PubChem SID": "SID152147258", "cell gain with vemurafenib": 0.64, "lactate per cell with vemurafenib": 1.21, "call": "inactive"}
{"Gene": "FAM9C (GeneID 171484)", "PubChem SID": "SID152153472", "cell gain with vemurafenib": 0.64, "lactate per cell with vemurafenib": 0.85, "call": "inactive"}
{"Gene": "UBE2Q1 (GeneID 55585)", "PubChem SID": "SID152151917", "cell gain with vemurafenib": 0.48, "lactate per cell with vemurafenib": 0.98, "call": "inactive"}

Reformatted: 3 of the entries above.
| Gene | PubChem SID | cell gain with vemurafenib | lactate per cell with vemurafenib | call |
| --- | --- | --- | --- | --- |
| GAGE2E (GeneID 26749) | SID134316709 | 0 | 0 | inactive |
| UNC5D (GeneID 137970) | SID134319333 | 1.06 | 0.4 | inactive |
| RSRP1 (GeneID 57035) | SID134319897 | 0.39 | 2.23 | inactive |
